Holding throughout (assay): BLI
Assay [1] deals with T1, human EphrinB1-Fc (human) (UniProt P98172).
T1 sequence: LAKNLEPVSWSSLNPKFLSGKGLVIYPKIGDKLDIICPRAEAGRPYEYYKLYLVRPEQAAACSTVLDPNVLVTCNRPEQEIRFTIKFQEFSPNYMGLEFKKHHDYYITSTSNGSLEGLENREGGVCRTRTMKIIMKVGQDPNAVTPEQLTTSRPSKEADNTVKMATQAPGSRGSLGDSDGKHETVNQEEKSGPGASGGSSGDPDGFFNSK

In assay [2] the target is Human EphrinB2-Fc (human) (UniProt P52799).
For the next assay, the target named is T2, Human EphB3-Fc (human, UniProt P54753 38-550).
T2 sequence (looked up): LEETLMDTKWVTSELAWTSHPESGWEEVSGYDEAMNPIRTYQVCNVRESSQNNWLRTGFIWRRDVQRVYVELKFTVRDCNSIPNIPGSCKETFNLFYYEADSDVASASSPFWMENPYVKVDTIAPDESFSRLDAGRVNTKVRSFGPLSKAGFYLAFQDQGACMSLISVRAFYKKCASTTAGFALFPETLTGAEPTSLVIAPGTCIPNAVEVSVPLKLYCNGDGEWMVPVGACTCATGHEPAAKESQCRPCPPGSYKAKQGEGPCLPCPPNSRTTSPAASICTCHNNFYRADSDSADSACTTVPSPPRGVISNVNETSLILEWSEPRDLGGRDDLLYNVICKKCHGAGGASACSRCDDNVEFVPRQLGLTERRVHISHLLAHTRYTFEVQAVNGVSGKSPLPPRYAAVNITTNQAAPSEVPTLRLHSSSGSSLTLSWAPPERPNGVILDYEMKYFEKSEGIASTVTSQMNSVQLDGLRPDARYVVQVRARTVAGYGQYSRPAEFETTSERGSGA

A further assay has as its target T3, Rat EphB1-Fc protein (rat, UniProt P09759 18-538).
T3 sequence (looked up): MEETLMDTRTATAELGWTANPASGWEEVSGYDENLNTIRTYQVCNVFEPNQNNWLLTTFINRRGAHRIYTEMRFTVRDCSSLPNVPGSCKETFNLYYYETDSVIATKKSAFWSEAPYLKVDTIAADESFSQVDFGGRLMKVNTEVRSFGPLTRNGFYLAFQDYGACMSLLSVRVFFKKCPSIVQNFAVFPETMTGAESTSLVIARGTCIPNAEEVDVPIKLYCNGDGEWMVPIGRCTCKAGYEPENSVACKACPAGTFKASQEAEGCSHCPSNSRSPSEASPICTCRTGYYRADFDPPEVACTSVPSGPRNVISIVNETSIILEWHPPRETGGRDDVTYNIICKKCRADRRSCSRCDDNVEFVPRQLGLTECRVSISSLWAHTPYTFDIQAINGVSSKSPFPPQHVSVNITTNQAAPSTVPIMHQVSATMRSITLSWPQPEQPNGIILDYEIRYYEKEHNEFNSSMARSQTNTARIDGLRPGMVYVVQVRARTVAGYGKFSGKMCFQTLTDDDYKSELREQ

Results are given in words; binding and its absence hold for the method and conditions named. Some results given as binding are weak or reduced against the parent protein; the word gives no strength. Where a sequence is shown, tags or fusion partners need not be part of it.

B1: Human EphB2-His (receptor, UniProt P29323 19-543)
chain: VEETLMDSTTATAELGWMVHPPSGWEEVSGYDENMNTIRTYQVCNVFESSQNNWLRTKFIRRRGAHRIHVEMKFSVRDCSSIPSVPGSCKETFNLYYYEADFDSATKTFPNWMENPWVKVDTIAADESFSQVDLGGRVMKINTEVRSFGPVSRSGFYLAFQDYGGCMSLIAVRVFYRKCPRIIQNGAIFQETLSGAESTSLVAARGSCIANAEEVDVPIKLYCNGDGEWLVPIGRCMCKAGFEAVENGTVCRGCPSGTFKANQGDEACTHCPINSRTTSEGATNCVCRNGYYRADLDPLDMPCTTIPSAPQAVISSVNETSLMLEWTPPRDSGGREDLVYNIICKSCGSGRGACTRCGDNVQYAPRQLGLTEPRIYISDLLAHTQYTFEIQAVNGVTDQSPFSPQFASVNITTNQAAPSAVSIMHQVSRTVDSITLSWSQPDQPNGVILDYELQYYEKELSEYNATAIKSPTNTVTVQGLKAGAIYVFQVRARTVAGYGRYSGKMYFQTMTEAEYQTSIQEKLPL
With B1, the binding result in assay [1] was “binds”; in assay [2], “binds weakly”.

B2: Human EphB1-His (receptor, UniProt P54762 18-540)
chain: MEETLMDTRTATAELGWTANPASGWEEVSGYDENLNTIRTYQVCNVFEPNQNNWLLTTFINRRGAHRIYTEMRFTVRDCSSLPNVPGSCKETFNLYYYETDSVIATKKSAFWSEAPYLKVDTIAADESFSQVDFGGRLMKVNTEVRSFGPLTRNGFYLAFQDYGACMSLLSVRVFFKKCPSIVQNFAVFPETMTGAESTSLVIARGTCIPNAEEVDVPIKLYCNGDGEWMVPIGRCTCKPGYEPENSVACKACPAGTFKASQEAEGCSHCPSNSRSPAEASPICTCRTGYYRADFDPPEVACTSVPSGPRNVISIVNETSIILEWHPPRETGGRDDVTYNIICKKCRADRRSCSRCDDNVEFVPRQLGLTECRVSISSLWAHTPYTFDIQAINGVSSKSPFPPQHVSVNITTNQAAPSTVPIMHQVSATMRSITLSWPQPEQPNGIILDYEIRYYEKEHNEFNSSMARSQTNTARIDGLRPGMVYVVQVRARTVAGYGKFSGKMCFQTLTDDDYKSELREQLP
As to B2, the figures for the binding entry in assay [1] and in assay [2] were “binds” and “binds weakly”, respectively.

B3: Mouse EphrinB2-His protein (ligand, UniProt P52800 29-232, looked up)
chain: RSIVLEPIYWNSSNSKFLPGQGLVLYPQIGDKLDIICPKVDSKTVGQYEYYKVYMVDKDQADRCTIKKENTPLLNCARPDQDVKFTIKFQEFSPNLWGLEFQKNKDYYIISTSNGSLEGLDNQEGGVCQTRAMKILMKVGQDASSAGSARNHGPTRRPELEAGTNGRSSTTSPFVKPNPGSSTDGNSAGHSGNNLLGSEVALFA
With B3, the binding entry with Human EphB3-Fc and in the assay with Rat EphB1-Fc protein was “binds weakly” each time.
